# Source: paper PMC11667235
# Amino acid sequences for entries named in this document (tags omitted). A change or cut given only in a name is not applied to a line headed by its entry. Residues count along the entry.
# UniProt P19338, 2-710: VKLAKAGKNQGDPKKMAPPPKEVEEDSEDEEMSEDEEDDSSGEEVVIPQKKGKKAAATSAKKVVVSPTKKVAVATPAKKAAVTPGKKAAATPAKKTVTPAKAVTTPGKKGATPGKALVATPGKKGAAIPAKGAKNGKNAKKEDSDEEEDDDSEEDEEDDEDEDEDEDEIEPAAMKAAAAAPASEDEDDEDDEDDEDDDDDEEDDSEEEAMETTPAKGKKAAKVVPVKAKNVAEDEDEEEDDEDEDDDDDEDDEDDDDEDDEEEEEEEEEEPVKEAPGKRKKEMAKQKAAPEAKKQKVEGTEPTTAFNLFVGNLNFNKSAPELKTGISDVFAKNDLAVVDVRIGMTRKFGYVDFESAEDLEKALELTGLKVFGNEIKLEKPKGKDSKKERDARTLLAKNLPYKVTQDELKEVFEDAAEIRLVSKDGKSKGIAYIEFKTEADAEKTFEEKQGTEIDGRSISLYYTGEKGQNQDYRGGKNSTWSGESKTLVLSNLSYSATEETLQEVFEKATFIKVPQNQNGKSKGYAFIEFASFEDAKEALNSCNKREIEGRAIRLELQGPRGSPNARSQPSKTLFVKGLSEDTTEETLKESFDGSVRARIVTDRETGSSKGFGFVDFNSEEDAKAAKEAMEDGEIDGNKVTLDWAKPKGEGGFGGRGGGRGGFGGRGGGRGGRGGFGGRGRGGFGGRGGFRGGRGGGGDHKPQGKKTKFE
# UniProt Q00987: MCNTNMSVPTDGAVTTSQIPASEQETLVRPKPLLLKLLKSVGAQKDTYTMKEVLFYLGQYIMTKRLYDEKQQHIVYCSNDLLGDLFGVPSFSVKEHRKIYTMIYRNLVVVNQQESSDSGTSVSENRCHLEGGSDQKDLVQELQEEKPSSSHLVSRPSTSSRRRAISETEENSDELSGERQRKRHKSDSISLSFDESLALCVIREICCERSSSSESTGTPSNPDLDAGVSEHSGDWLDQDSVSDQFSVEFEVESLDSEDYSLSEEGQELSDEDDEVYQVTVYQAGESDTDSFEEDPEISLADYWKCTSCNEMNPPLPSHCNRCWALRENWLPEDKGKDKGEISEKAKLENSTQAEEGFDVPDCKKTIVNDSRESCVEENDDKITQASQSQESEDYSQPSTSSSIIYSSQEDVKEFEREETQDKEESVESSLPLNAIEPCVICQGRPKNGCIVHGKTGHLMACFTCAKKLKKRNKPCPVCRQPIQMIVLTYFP
# UniProt P08581, 25-1390: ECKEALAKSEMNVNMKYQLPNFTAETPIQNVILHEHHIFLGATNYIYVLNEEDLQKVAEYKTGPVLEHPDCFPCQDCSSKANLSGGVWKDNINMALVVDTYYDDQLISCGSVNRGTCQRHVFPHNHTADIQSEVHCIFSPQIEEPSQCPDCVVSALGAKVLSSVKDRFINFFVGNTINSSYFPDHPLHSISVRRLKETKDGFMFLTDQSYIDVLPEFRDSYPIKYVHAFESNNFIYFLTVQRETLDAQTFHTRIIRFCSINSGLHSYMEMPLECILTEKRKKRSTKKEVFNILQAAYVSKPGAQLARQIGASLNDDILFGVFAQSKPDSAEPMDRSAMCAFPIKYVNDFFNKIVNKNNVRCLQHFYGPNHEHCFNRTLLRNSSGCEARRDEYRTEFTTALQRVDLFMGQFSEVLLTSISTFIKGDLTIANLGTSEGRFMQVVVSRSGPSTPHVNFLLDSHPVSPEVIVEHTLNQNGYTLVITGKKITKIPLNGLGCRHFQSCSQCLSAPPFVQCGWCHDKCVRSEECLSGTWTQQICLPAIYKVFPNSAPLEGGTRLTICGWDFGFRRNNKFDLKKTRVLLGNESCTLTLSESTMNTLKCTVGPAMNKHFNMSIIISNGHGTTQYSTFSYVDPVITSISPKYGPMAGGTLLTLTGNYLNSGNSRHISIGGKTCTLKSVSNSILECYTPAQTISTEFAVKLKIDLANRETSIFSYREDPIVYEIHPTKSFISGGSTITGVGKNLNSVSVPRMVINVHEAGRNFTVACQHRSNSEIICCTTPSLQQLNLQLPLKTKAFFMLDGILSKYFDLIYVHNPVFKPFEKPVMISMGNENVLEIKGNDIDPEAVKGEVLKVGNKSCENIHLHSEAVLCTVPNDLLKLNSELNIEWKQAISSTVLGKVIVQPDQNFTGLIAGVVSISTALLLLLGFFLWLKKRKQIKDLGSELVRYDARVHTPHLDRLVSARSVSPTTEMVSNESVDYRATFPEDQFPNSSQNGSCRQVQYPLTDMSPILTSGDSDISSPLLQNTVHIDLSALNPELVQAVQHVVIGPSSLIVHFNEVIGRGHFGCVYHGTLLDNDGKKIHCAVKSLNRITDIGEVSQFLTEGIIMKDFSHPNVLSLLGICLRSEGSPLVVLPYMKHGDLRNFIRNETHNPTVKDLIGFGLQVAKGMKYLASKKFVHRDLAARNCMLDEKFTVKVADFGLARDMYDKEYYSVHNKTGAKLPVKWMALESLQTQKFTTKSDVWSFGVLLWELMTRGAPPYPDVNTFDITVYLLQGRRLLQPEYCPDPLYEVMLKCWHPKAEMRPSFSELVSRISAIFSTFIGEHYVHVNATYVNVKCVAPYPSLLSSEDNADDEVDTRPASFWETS
# Results from cells or extracts need not show a direct contact. For some of these results: Negatives hold for the conditions tested. For some of these results: For at least one entry, the source does not settle the construct or the ends of the probe. For some of these results: A weaker result is weaker than the reference pair of the same experiment.
# How the values were obtained:
# Experiment in all cases: pull-down (streptavidin beads, immunoblot)
# nucleolin (NCL) = nucleolin (NCL) (UniProt P19338); conditions: 500 nM, cells treated 6 h before extraction; MNNG/HOS cells treated with 500 nM biotin-labeled oligonucleotide for 6 h, whole-cell extract, streptavidin magnetic beads; protein in an extract; folded or branched DNA
# nucleolin (NCL) + MDM2 = conditions: MDM2 captured in an NCL-dependent manner, 500 nM, 6 h; MNNG/HOS cells treated with 500 nM biotin-labeled oligonucleotide for 6 h, whole-cell extract, streptavidin magnetic beads; protein in an extract; folded or branched DNA
# MDM2 = MDM2 (UniProt Q00987); conditions: NCL-silenced cells (siNCL), not effectively captured; MNNG/HOS cells treated with 500 nM biotin-labeled oligonucleotide for 6 h, whole-cell extract, streptavidin magnetic beads; protein in an extract; folded or branched DNA
# c-MET = c-MET (UniProt P08581); conditions: 500 nM, cells treated 6 h before extraction; MNNG/HOS cells treated with 500 nM biotin-labeled oligonucleotide for 6 h, whole-cell extract, streptavidin magnetic beads; protein in an extract; folded or branched DNA
sequence,measurement,setting,value
GGTGGTGGTGGTTGTGGTGGTGGTGG [AS1411],binding result,nucleolin (NCL),binds
same,binding result,nucleolin (NCL) + MDM2,binds
same,binding result,MDM2,binds more weakly
same,binding result,c-MET,no binding
